Binding data for 1 substance are collected here from patent publication US20200172582A1.

Chains of the proteins cited; added tags and fusions are not shown. Lines headed by an entry give the natural chain unless they say otherwise; changes in a name come on top.
UniProt Q91ZW8: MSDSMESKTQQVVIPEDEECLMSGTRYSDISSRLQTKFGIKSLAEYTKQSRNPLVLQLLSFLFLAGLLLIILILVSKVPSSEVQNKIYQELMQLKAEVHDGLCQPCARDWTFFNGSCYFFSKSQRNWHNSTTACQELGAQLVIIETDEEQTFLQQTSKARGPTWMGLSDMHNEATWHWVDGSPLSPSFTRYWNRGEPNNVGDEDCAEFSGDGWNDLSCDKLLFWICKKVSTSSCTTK

No constants are given. Whether binding was seen depends on the method and setting. Some binding calls cover weakened binding; strength is not graded here.

For assay [1], the target named is T1, Lactobacillus acidophilus surface layer protein A (SlpA), purified from strain NCK2187 (Lactobacillus acidophilus) (UniProt P35829).
T1 sequence: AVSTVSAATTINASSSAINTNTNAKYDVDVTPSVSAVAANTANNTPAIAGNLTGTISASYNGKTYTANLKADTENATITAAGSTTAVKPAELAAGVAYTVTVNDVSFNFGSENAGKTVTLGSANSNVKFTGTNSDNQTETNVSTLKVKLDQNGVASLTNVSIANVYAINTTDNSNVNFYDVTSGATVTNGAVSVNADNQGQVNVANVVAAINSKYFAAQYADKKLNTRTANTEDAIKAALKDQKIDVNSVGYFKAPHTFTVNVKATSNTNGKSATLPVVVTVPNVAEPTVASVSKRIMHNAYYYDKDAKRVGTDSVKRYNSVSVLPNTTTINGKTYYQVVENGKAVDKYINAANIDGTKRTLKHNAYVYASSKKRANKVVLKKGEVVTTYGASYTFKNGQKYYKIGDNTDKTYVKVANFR
Briefly: flow cytometry of SlpA-coated beads with hFc fusion proteins.

The target of assay [2] is T1, Lactobacillus acidophilus surface layer protein A (SlpA), purified from strain NCK2187 (Lactobacillus acidophilus). Briefly: flow cytometry of SlpA-coated beads with SIGNR3-hFc (FIG. 5B).

As for “SIGNR3-hFc (extracellular region of murine SIGNR3 fused to the Fc part of human IgG1) (from UniProt Q91ZW8 76-237; P01857 104-330) (Fc fusion)”, the binding entry in assay [1] and in assay [2] was “binds” in each case.
